Laboratory results as given in patent EP0454461A1, “Selective amplification system using Q beta replicase, a hybridization assay and a method of detecting and assessing concentration of target nucleic acid in liquid samples” (GENE-TRAK SYSTEMS CORPORATION, priority 1990, dated 1991).
Some results were stated once for a whole list of compounds, not compound by compound. At least one structure is not confirmed: it was looked up by name or label, or the drawing left a doubt.

What follows are compounds tested on Qβ replicase (assay: Inhibition by dyes of MDV-1 replication in linear-phase Qβ replicase reactions). Conditions: template RNA in excess over the enzyme, concentration not given.
Assay type: biochemical, bacteriophage Qβ
Method: A number of dyes, including ethidium bromide, ethidium bromide homodimer, propidium iodide, proflavine, quinacrine, Hoescht 33258 (bis-benzamidine), dimidium bromide and acridine orange, were tested for their ability to inhibit the replication of MDV-1 in linear-phase reactions, i.e., where the template RNA is present in excess over the enzyme and the amount of replicated RNA thus increases linearly with time. […] One of the strongest inhibitors, propidium iodide, was selected for further study. A concentration of dye producing a 70% inhibition of replication, about 3µg/ml, is sufficiently low to allow detection of the fluorescence increase produced when the dye binds to the RNA products of the reaction.

SMILES | ability to inhibit the replication of MDV-1 by Qβ replicase
CN1CCN(c2ccc3[nH]c(-c4ccc5[nH]c(-c6ccc(O)cc6)nc5c4)nc3c2)CC1 [Hoescht 33258, Hoescht 33258 (bis-benzamidine)] | except Hoescht 33258
C[n+]1c(-c2ccccc2)c2cc(N)ccc2c2ccc(N)cc21 [dimidium bromide] | inhibited
Nc1ccc2c(c1)c(-c1ccccc1)[n+](CCCNCCNCCC[n+]1c(-c3ccccc3)c3cc(N)ccc3c3ccc(N)cc31)c1cc(N)ccc21 [ethidium bromide homodimer] | inhibited
CC[n+]1c(-c2ccccc2)c2cc(N)ccc2c2ccc(N)cc21 [ethidium bromide] | inhibited
CC[N+](C)(CC)CCC[n+]1c(-c2ccccc2)c2cc(N)ccc2c2ccc(N)cc21 [propidium iodide] | inhibited
CCN(CC)CCCC(C)Nc1c2ccc(Cl)cc2nc2ccc(OC)cc12 (stereo not drawn) [quinacrine] | inhibited
